# Screen size: about 330,000 compounds; about 7,700 (2.3%) were called active. The inconclusive results got no clear call from the source; some entries with a clear call stand among them for comparison. The call rests on the fitted dose curve; in most records, active means well fitted inhibition curve with a large enough effect; inconclusive means small, poorly fitted or top-dose-only effect, or effect the other way; inactive means flat fitted curve, though single readings scatter. A potency beside an inconclusive call is a rough fit, not a confirmed value.
# Experiment: qHTS screen for small molecules that inhibit ELG1-dependent DNA repair in human embryonic kidney (HEK293T) cells expressing luciferase-tagged ELG1; further: nearly all actives have a fitted effect of over 55% in size
# Details: HEK293T ELG1-luciferase reporter, luminescence, 16 h, DNA damage induced by 5-fluorouridine; series mostly up to 46.1 µM
# In short: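 5-Fluorouridine DNA damage + compound/DMSO, 2,000 cells/well, 16 h, 37 °C/5% CO2. ONE-Glo, 30 min RT, luminescence. Readout = decrease in reporter signal.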
# Potency means the concentration at half of the fitted maximal effect.
row,SMILES,Potency
1,Cc1ccc(N(CC(=O)NC2CCCC2)C(=O)c2nsc(Cl)c2Cl)cc1,inactive
2,O=C1NCCCC1C(=O)N/N=C/c1ccc(Cl)cc1 (centres undefined),"inconclusive: 29.1 µM [activator, single point]"
3,Cc1ccccc1OCC(=O)N/N=C/c1ccncc1,inactive
4,COc1ccc(COC(=O)C2=C(C)NC(=O)NC2c2ccccc2F)cc1 (centres undefined),"inconclusive: 16.4 µM [inhibitor, single point]"
5,Cn1c(=O)c(Nc2ccc(Cl)cc2)c2c3c(cccc31)C(=O)c1ccccc1-2,"inconclusive: 25.9 µM [inhibitor, single point]"
6,CCCCN(CC)CCNC(=O)c1nn(-c2ccc(OC)cc2)c(=O)c2c1c1ccccc1n2C,"inconclusive: 23.1 µM [activator, single point]"
7,CC(=O)Nc1ccc(S(=O)(=O)N2CCC(C(=O)c3ccc(F)cc3)CC2)cc1,inactive
8,COc1ccccc1C(=O)Nc1cc(C)on1,"inconclusive: 20.6 µM [activator, partial curve]"
9,COC(=O)c1sc(NC(=O)c2cc3c(s2)CCCC3)nc1C,"inconclusive: 2.24 µM [activator, full curve]"
10,CCOC(=O)C1=C(C)OC(N)=C(C#N)C1c1cc(OC)c2c(c1)OCO2 (centres undefined),"inconclusive: 10.3 µM [activator, partial curve, poor fit]"
11,Cc1ccc(C(C)C)c(OCc2ccc(-c3nnco3)cc2)c1,"inconclusive: 14.6 µM [activator, partial curve, poor fit]"
12,COc1ccc(NC(=S)NC(=O)/C=C/c2ccco2)c(OC)c1,inactive
13,CCC(=O)N1N=C(c2cccs2)CC1c1ccc(OC)cc1 (centres undefined),inactive
14,CN(C)c1ccc(/C=N/n2cnn(Cc3ccccc3Cl)c2=S)cc1,"inconclusive: 9.2 µM [activator, partial curve, poor fit]"
15,Cc1ccc(C(c2cc(Cl)c3cccnc3c2O)N2CCN(C)CC2)cc1 (centres undefined),active: 16.4 µM
16,CCN(C(=O)C1CCCN(c2nc(-c3ccc(OC)cc3)no2)C1)c1ccc(OC)cc1 (centres undefined),"inconclusive: 32.6 µM [inhibitor, partial curve, poor fit]"
17,O=C(Cc1ccc(Cl)cc1)N1CCN(c2ccccc2)CC1,inactive
18,O=C(Nc1ccccc1C(F)(F)F)c1ncn[nH]1,"inconclusive: 23.1 µM [inhibitor, single point]"
19,N#Cc1ccc(NC(=O)CNc2cc(S(=O)(=O)N3CCOCC3)ccc2NCC2CCCO2)cc1 (centres undefined),active: 8.2 µM
20,O=C(Nc1nc(-c2cc(F)ccc2F)cs1)C1=NN(c2ccccc2)C(=O)CC1,"inconclusive: 18.3 µM [inhibitor, single point]"
21,CN(C1CCCCC1)S(=O)(=O)c1ccc2c(c1)CCC(=O)N2,"inconclusive: 20.6 µM [activator, partial curve, poor fit]"
22,O=[N+]([O-])c1cccc(/C=N/n2c(C3CCCCC3)n[nH]c2=S)c1,inactive
23,O=C(CC(=O)c1ccccc1)Nc1ccccn1,"inconclusive: 9.2 µM [activator, partial curve]"
24,CN(C)c1cccc(C(=O)NCCCSc2ccccc2)c1,"inconclusive: 18.3 µM [activator, single point]"
25,COc1cccc(NC(=O)CNC(=O)c2ccc(C)o2)c1,inactive

row,SMILES,Potency
1,Cn1c(CCCOc2ccc(Cl)cc2Cl)nnc1SCC(=O)Nc1cccc(F)c1,"inconclusive: 16.4 µM [activator, single point]"
2,COc1ccc(CN2CCN(Cc3ccc(OC)c(OC)c3OC)CC2)cc1,"inconclusive: 23.1 µM [inhibitor, partial curve, poor fit]"
3,Cc1ccc(O)c(NC(=O)c2cc([N+](=O)[O-])ccc2Cl)c1,"inconclusive: 23.1 µM [inhibitor, single point]"
4,O=c1sc2ccccc2n1CCCOc1ccccc1,"inconclusive: 12.6 µM [activator, partial curve, poor fit]"
5,COc1ccc(NS(=O)(=O)c2cc(NC(=O)c3ccc(C)o3)ccc2N2CCCCC2)cc1,inactive
6,Cc1ccc(S(=O)(=O)N2CCCN(C(C)c3nc4ccccc4c(=O)[nH]3)CC2)cc1 (centres undefined),"inconclusive: 29.1 µM [inhibitor, single point]"
7,CC1Sc2ccc(C(=O)Nc3ncccc3O)cc2NC1=O (centres undefined),"inconclusive: 4.11 µM [activator, partial curve]"
8,CCN(CC)CCn1c(C)nc2c(sc3nc4c(cc32)COC(C)(C)C4)c1=O,"inconclusive: 29.1 µM [activator, single point]"
9,Cc1sc2nc(SCC(=O)OC(C)C)n(C)c(=O)c2c1C,"inconclusive: 23.1 µM [inhibitor, partial curve, poor fit]"
10,Cc1nnc(SCC(=O)N(C)CC(=O)Nc2ccccc2Cl)s1,"inconclusive: 29.1 µM [activator, partial curve, poor fit]"
11,O=C1c2ccccc2C(=O)N1CCn1c(=O)oc2ccccc21,inactive
12,CCC(C(=O)Nc1ccc([N+](=O)[O-])cn1)c1ccccc1 (centres undefined),inactive
13,CC(=O)Nc1cccc(C(=O)OC(C(=O)c2ccc(C)c(C)c2)c2ccccc2)c1 (centres undefined),"inconclusive: 29.1 µM [inhibitor, single point]"
14,O=C(NCCc1ccccc1)c1nc2ncccn2n1,"inconclusive: 16.4 µM [activator, partial curve, poor fit]"
15,Cc1cc2c3c(c1C)C1(C(=O)N3C(C)(C)CC2C)C(C#N)=C(N)Oc2n[nH]c(C)c21 (centres undefined),inactive
16,CC1CCCN(c2ccc(C(=O)Nc3nnc(C4CC4)s3)cc2[N+](=O)[O-])C1 (centres undefined),inactive
17,Brc1ccc2ncnc(NCc3cccnc3)c2c1,active: 8.2 µM
18,O=C(N/N=C/c1ccco1)c1cc(-c2cccc(Br)c2)nc2ccccc12,"inconclusive: 18.4 µM [inhibitor, partial curve, poor fit]"
19,CN(C)c1ccc(NC(=S)c2ccccn2)cc1,"inconclusive: 0.082 µM [activator, full curve, poor fit]"
20,CCOC(=O)CC(NC(=O)c1cc2cc(Cl)cc(Cl)c2oc1=O)c1cccc([N+](=O)[O-])c1 (centres undefined),inactive
21,COc1ccc(NC(=O)CSc2nc3sc(C)cc3c(=O)n2C)cc1,inactive
22,O=C(Nc1ncc(Cc2cccc(Cl)c2)s1)c1ccc([N+](=O)[O-])cc1,inactive
23,CC1=Nn2c(nc3sc4c(c3c2=O)CCCC4)SC1,"inconclusive: 23.1 µM [activator, partial curve]"
24,Cc1ccc(C(c2c(C)n(C)n(-c3ccccc3)c2=O)c2c(C)n(C)n(-c3ccccc3)c2=O)s1,active: 23.1 µM
25,COc1ccc(-c2nnc(SCC(=O)c3ccc(O)cc3O)o2)cc1,"inconclusive: 10.3 µM [activator, partial curve]"

row,SMILES,Potency
1,O=C(C1CC(c2ccc(F)cc2)=NO1)N1CCc2ccccc2C1 (centres undefined),"inconclusive: 16.4 µM [activator, single point]"
2,Cc1ccc(NC(=S)N/N=C/c2ccc(OCCC(C)C)cc2)c(C)c1,inactive
3,O=C(CN1C(=O)NC2(CCCC2)C1=O)NCc1ccc(Cl)cc1,inactive
4,COCCOC(=O)C1=C(C)NC(=S)NC1/C=C/c1ccccc1 (centres undefined),active: 5.8 µM
5,CCOC(=O)Cc1csc(NC(=O)/C=C/c2ccc(Br)o2)n1,"inconclusive: 29.1 µM [inhibitor, single point]"
6,C(=N\Nc1nc(N2CCCC2)nc(N2CCCC2)n1)/c1cccnc1,inactive
7,Cc1cc(N2C(=O)C3C4c5ccccc5C(c5ccccc54)C3C2=O)no1 (centres undefined),"inconclusive: 25.9 µM [inhibitor, single point]"
8,Cc1ccc(S(=O)(=O)N(C)C)cc1NC(=O)CSc1nc2ncc(Cl)cc2[nH]1,inactive
9,Cc1ccc(-c2nnc3c(C(F)(F)F)nc4ccccc4n23)cc1,inactive
10,CCOc1ccc(OCCSc2ccc(S(=O)(=O)N3CCN(C)CC3)cn2)cc1,inactive
11,COCCn1c(SCC(=O)Nc2cc(OC)ccc2OC)nc2c(c1=O)SC(C)C2 (centres undefined),inactive
12,CCOC(=O)c1cc2cc(CC(=O)c3ccc(OCC)cc3O)ccc2o1,"inconclusive: 23.1 µM [activator, single point]"
13,O=C(CSc1nnc(CNc2ccccc2)o1)N1CCCc2ccccc21,inactive
14,Cc1ccc(CS(=O)(=O)Cc2ccc(C(=O)NCCCN3CC(C)CC(C)C3)o2)cc1 (centres undefined),inactive
15,CC(C)c1ccc(/C=C2\SC(=O)N(CC(=O)NC3CCS(=O)(=O)C3)C2=O)cc1 (centres undefined),"inconclusive: 14.6 µM [activator, single point]"
16,CC(C)(C)c1cc(C(=O)NNC(=O)Nc2cccc(Cl)c2)n(Cc2ccccc2)n1,inactive
17,COc1ccccc1CN(Cc1cc2cc3c(cc2[nH]c1=O)OCCO3)Cc1nnnn1Cc1ccco1,active: 20.6 µM
18,Cc1cccc(-c2nc(CS(=O)CC(=O)NCc3ccco3)c(C)o2)c1 (centres undefined),inactive
19,CS(=O)(=O)Oc1ccc2c(c1)O/C(=C\c1cccnc1)C2=O,"inconclusive: 6.51 µM [activator, single point]"
20,O=C(NCCC1=CCCCC1)c1ccc([N+](=O)[O-])cc1,"inconclusive: 2.59 µM [activator, partial curve]"
21,COc1cccc(CC2(CO)CCCN(Cc3ccccc3-c3ccco3)C2)c1 (centres undefined),inactive
22,N#Cc1c(/N=C/c2cc3ccccc3s2)sc2c1CCC2,"inconclusive: 2.06 µM [activator, full curve]"
23,O=c1oc2ccccc2c(O)c1Cc1cc(Cl)c2cccnc2c1O,"inconclusive: 25.9 µM [inhibitor, single point]"
24,CC1=C(C(=O)NCc2ccco2)C2(CCC(C)CC2)OC1=O (centres undefined),"inconclusive: 0.259 µM [inhibitor, full curve, poor fit]"

# An excerpt of these results, tab-delimited.
row	SMILES	Potency
17	COc1ccccc1CN(Cc1cc2cc3c(cc2[nH]c1=O)OCCO3)Cc1nnnn1Cc1ccco1	active: 20.6 µM
18	Cc1cccc(-c2nc(CS(=O)CC(=O)NCc3ccco3)c(C)o2)c1 (centres undefined)	inactive
19	CS(=O)(=O)Oc1ccc2c(c1)O/C(=C\c1cccnc1)C2=O	inconclusive: 6.51 µM [activator, single point]
20	O=C(NCCC1=CCCCC1)c1ccc([N+](=O)[O-])cc1	inconclusive: 2.59 µM [activator, partial curve]

# Looked up one by one from above, two records:
row,SMILES,Potency
13,O=C(CSc1nnc(CNc2ccccc2)o1)N1CCCc2ccccc21,inactive
5,CCOC(=O)Cc1csc(NC(=O)/C=C/c2ccc(Br)o2)n1,"inconclusive: 29.1 µM [inhibitor, single point]"

# Reference: PubChem BioAssay AID504467 (National Center for Advancing Translational Sciences (NCATS), 2011)
